Source: the supplement of paper PMC10849652
Some of the results follow.

Sequences of proteins named here, by UniProt entry; tags and fusion partners are left off. A change or cut given only in a name is not applied to a line headed by its entry.
UniProt Q3T8J9: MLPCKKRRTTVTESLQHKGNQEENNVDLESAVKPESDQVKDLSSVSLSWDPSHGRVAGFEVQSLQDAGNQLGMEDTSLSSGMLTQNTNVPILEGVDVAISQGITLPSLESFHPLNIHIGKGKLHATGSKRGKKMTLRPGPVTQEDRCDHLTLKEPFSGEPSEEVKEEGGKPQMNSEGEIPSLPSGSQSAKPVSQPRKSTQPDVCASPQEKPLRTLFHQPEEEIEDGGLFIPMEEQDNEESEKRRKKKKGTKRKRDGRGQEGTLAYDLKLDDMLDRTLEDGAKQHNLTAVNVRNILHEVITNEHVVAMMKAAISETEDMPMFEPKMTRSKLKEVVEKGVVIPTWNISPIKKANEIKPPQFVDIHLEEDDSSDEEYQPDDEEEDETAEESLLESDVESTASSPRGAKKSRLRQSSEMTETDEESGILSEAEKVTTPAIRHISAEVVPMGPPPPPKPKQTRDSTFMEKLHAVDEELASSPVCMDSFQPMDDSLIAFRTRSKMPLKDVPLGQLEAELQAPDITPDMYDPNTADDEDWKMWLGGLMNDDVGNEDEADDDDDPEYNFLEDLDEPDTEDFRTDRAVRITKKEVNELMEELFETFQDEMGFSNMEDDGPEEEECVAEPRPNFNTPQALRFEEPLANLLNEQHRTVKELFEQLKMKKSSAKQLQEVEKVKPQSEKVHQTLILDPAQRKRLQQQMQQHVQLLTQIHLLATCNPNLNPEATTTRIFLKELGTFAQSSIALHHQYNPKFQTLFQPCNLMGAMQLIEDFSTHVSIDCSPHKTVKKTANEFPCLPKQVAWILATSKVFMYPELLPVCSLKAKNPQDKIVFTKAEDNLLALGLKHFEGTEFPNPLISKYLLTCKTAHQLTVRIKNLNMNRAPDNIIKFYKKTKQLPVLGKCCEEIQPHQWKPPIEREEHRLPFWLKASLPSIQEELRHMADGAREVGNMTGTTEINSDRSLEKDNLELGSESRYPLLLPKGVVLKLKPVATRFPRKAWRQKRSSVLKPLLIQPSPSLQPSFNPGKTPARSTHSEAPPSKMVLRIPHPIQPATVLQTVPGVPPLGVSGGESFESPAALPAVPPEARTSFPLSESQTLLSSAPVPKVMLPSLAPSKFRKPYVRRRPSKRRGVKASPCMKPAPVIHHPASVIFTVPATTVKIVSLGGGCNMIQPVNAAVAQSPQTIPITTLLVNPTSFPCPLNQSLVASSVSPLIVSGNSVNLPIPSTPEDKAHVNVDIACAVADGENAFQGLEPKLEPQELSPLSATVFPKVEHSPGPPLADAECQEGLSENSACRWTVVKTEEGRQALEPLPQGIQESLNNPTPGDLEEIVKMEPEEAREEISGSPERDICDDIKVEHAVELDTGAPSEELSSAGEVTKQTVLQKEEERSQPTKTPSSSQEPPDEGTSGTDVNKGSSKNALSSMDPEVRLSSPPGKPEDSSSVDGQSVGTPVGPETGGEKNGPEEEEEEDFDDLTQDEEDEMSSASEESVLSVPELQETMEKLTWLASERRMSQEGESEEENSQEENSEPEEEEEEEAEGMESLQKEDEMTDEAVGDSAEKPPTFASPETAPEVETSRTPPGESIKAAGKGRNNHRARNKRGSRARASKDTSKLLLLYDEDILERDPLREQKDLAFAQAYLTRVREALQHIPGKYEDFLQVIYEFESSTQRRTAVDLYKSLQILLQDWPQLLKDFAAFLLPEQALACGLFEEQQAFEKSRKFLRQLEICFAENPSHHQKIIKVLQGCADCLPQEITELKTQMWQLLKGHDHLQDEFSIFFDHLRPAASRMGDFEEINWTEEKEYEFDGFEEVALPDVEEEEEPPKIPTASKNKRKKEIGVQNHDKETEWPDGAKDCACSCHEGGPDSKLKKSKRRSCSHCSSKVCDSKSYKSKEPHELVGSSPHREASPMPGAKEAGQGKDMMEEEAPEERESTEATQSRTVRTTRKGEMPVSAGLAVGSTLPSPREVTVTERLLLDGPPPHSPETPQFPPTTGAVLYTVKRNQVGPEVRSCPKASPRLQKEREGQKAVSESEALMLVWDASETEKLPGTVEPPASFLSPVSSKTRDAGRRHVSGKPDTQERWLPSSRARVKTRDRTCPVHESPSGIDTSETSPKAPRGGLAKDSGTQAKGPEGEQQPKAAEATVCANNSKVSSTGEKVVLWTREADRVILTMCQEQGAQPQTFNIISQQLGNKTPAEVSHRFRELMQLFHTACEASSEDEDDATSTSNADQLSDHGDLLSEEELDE
UniProt P63218: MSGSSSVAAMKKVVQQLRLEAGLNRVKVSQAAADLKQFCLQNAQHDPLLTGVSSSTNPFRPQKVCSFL
UniProt Q04760: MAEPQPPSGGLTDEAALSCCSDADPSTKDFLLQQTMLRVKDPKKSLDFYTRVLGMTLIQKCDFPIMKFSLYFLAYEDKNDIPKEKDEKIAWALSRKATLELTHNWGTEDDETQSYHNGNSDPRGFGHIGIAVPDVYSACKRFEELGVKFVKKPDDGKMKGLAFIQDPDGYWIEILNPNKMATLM
UniProt Q86SX6: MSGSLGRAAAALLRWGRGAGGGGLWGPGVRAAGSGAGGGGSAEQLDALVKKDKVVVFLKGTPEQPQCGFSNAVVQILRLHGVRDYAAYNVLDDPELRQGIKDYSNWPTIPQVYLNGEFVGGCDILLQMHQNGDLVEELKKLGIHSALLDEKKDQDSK
UniProt P49448: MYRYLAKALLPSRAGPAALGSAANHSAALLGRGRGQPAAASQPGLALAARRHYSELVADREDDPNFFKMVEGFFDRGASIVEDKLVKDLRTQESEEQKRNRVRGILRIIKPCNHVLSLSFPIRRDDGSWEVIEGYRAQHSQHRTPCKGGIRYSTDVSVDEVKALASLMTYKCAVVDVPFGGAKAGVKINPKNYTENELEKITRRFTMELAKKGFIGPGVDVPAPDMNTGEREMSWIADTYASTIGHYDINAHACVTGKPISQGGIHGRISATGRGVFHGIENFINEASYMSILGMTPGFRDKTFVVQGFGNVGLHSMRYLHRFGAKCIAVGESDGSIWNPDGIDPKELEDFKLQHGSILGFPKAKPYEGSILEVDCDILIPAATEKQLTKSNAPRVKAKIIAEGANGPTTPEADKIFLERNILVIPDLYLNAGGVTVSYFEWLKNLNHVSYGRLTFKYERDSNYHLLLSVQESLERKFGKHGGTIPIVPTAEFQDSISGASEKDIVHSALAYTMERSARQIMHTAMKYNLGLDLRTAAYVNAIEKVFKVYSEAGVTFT
UniProt O75496: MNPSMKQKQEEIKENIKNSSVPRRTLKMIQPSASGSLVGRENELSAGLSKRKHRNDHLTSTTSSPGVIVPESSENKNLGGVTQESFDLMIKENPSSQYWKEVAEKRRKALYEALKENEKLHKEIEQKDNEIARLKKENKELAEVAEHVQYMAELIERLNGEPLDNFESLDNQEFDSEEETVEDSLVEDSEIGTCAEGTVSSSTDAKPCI
UniProt Q9H3C7, whole entry, looked up: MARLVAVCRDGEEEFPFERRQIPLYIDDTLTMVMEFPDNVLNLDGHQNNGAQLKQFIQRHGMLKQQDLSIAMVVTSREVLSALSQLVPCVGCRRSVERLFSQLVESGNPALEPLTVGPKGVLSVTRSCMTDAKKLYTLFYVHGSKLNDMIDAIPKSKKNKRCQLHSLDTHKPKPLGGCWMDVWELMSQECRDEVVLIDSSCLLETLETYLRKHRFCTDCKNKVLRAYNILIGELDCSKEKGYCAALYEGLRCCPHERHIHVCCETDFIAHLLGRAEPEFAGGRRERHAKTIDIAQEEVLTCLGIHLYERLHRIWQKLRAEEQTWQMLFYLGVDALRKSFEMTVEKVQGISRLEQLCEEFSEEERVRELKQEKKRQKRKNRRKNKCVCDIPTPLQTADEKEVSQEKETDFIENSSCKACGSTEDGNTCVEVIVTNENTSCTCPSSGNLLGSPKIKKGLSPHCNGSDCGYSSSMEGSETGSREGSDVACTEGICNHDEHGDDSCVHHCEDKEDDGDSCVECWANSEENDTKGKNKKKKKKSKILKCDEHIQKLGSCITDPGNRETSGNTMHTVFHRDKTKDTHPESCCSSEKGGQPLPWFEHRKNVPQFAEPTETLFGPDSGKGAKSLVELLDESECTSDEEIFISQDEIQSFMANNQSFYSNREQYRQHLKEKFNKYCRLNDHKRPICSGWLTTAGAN
UniProt Q86YR5: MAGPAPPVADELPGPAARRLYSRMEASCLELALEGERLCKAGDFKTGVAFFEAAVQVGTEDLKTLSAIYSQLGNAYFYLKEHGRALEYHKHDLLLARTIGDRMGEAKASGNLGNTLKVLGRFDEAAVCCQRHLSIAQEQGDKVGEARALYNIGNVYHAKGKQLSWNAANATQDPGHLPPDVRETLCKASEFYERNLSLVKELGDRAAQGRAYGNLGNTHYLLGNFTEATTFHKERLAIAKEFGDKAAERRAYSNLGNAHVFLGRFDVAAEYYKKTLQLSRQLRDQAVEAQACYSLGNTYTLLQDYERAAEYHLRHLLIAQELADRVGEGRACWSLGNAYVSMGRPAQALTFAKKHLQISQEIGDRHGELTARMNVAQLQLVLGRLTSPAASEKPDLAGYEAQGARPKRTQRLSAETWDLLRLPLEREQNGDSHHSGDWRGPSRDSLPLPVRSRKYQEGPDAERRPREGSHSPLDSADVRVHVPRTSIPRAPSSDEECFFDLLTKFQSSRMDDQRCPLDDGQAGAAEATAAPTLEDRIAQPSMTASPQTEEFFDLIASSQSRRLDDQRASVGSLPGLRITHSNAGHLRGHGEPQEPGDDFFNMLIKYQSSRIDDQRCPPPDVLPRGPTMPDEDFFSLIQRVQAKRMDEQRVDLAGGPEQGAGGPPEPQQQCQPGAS
UniProt P49915: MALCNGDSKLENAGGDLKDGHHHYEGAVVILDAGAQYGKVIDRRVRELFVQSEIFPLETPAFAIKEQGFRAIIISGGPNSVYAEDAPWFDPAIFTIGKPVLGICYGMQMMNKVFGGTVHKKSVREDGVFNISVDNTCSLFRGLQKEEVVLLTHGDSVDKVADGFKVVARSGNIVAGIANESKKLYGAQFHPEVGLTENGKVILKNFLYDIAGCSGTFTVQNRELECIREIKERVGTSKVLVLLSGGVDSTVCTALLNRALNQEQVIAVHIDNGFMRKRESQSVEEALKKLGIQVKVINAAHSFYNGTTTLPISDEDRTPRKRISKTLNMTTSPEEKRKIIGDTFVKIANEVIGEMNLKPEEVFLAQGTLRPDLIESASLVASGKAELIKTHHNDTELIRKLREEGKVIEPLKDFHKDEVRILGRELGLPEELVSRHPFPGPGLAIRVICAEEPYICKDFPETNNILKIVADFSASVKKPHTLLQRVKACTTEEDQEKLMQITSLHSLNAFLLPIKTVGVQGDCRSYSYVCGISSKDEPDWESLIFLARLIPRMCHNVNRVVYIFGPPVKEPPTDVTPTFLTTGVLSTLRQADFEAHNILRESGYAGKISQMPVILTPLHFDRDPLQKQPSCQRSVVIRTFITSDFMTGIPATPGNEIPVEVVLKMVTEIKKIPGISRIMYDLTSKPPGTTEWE
UniProt Q9BRX5: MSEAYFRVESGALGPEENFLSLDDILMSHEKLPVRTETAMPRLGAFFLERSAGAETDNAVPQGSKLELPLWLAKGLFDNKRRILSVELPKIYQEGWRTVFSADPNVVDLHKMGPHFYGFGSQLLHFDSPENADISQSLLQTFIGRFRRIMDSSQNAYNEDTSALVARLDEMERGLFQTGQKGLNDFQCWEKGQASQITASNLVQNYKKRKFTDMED
UniProt Q9NPR9: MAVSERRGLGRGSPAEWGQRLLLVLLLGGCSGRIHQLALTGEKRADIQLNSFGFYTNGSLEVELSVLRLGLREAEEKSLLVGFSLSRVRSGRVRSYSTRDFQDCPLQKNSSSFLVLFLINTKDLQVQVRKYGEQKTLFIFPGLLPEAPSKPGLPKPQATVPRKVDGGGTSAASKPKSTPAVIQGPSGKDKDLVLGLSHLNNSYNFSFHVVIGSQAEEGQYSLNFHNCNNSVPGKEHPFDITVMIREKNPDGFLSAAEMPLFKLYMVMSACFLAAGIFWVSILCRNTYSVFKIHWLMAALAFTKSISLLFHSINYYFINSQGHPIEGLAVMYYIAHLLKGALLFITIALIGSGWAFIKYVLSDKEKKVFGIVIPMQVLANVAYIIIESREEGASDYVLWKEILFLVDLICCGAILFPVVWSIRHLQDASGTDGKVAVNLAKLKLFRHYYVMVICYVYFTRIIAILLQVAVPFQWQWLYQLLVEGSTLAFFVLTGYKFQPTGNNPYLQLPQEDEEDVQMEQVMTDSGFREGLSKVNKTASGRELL
UniProt Q8IXQ4: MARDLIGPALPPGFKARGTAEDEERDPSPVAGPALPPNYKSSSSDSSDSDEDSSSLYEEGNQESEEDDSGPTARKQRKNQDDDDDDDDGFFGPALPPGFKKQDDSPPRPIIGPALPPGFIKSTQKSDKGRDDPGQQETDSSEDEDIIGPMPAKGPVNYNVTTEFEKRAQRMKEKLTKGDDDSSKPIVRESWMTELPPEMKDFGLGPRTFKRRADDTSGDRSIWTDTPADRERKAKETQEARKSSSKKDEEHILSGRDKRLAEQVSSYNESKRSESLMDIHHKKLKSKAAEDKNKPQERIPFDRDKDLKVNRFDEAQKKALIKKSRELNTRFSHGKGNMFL

Tests used:
Test in all cases: log2 fold change, soluble protein after heating vs DMSO (PISA); higher = thermal stabilisation; K562 lysate, 10 uM; active = over 0.2 and 3.5 SD of the protein, either way, in both replicates (recomputed)
[1] = compound: NCC(=O)Nc1ccc(-n2nc(C(F)(F)F)cc2-c2ccc3c(ccc4ccccc43)c2)cc1
Outline: (§1)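 Values give the log-two fold change in thermal stability against solvent controls, from duplicates. Crude K562 extract at 1 mg/mL protein, made by dounce homogenisation in PBS pH 7.4 with 1 mM MgCl2, was treated with 10 μM compound for 30 min. After 3 min heating across 48°C-58°C, aliquots were pooled, adjusted to 0.5% NP-40 at 4°C and centrifuged at 21,000xg for 90 min. The supernatant was measured by TMTpro 16plex LC-MS/MS with channel sums equalised.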

vorinostat = compound: O=C(CCCCCCC(=O)Nc1ccccc1)NO [vorinostat]
Outline: as §1

silmitasertib = compound: O=C(O)c1ccc2c(c1)nc(Nc1cccc(Cl)c1)c1ccncc12 [silmitasertib]
Outline: as §1

[2] = compound: O=C1NC(=O)C(c2cnc3ccccn23)=C1c1cn2c3c(cc(F)cc13)CN(C(=O)N1CCCCC1)CC2
Outline: as §1

entospletinib = compound: c1cn2cc(-c3ccc4cn[nH]c4c3)nc(Nc3ccc(N4CCOCC4)cc3)c2n1 [entospletinib]
Outline: as §1

Target	log2 fold change [1]	log2 fold change (vorinostat)	log2 fold change (silmitasertib)	log2 fold change [2]	log2 fold change (entospletinib)
GPD2 (UniProt P43304)	inactive: 0	inactive: 0.163	inactive: -0.004	inactive: -0.009	inactive: -0.003
GGCT (UniProt O75223)	inactive: 0.004	inactive: 0.124	inactive: -0.017	inactive: -0.016	inactive: -0.014
GON4L (UniProt Q3T8J9)	inactive: -0.051	inactive: -0.162	inactive: 0.066	inactive: -0.076	inactive: 0.067
GGT7 (UniProt Q9UJ14)	inactive: -0.094	active: 0.244	inactive: -0.017	inactive: 0.015	inactive: -0.056
GLB1L2 (UniProt Q8IW92)	inactive: 0.018	inactive: -0.023	inactive: -0.045	inactive: -0.029	inactive: -0.012
GNL3L (UniProt Q9NVN8)	inactive: -0.12	inactive: -0.161	inactive: -0.094	inactive: -0.072	inactive: -0.07
GNG5 (UniProt P63218)	inactive: -0.11	inactive: -0.022	inactive: -0.126	inactive: 0.035	inactive: 0.011
GMPR (UniProt P36959)	inactive: 0	inactive: 0.144	inactive: -0.006	inactive: -0.017	inactive: 0.03
GPI (UniProt P06744)	inactive: 0.004	inactive: 0.105	inactive: 0.014	inactive: -0.027	inactive: 0.012
GLO1 (UniProt Q04760)	inactive: -0.031	inactive: 0.014	inactive: 0.026	inactive: 0.035	inactive: -0.025
GLRX5 (UniProt Q86SX6)	inactive: -0.005	inactive: -0.087	inactive: 0.062	inactive: -0.081	inactive: -0.087
GNPTG (UniProt Q9UJJ9)	inactive: -0.157	inactive: 0.194	inactive: 0.043	inactive: -0.112	inactive: -0.103
GLB1 (UniProt P16278)	inactive: 0.003	inactive: -0.013	inactive: -0.03	inactive: -0.043	inactive: -0.018
GHDC (UniProt Q8N2G8)	inactive: -0.143	inactive: -0.04	inactive: -0.001	inactive: 0.008	inactive: -0.03
GLOD4 isoform 2 (UniProt Q9HC38)	inactive: 0.027	inactive: 0.077	inactive: 0.029	inactive: -0.046	inactive: -0.003
GLUD2 (UniProt P49448)	active: 0.297	inactive: 0.096	inactive: 0.022	inactive: 0.026	inactive: -0.084
GNB3 (UniProt P16520)	inactive: 0.101	inactive: 0.069	inactive: -0.024	inactive: -0.071	inactive: 0.038
GMNN (UniProt O75496)	inactive: -0.021	inactive: 0.071	inactive: -0.004	inactive: 0.01	inactive: 0.021
GOLGB1 (UniProt Q14789)	inactive: 0.021	inactive: -0.094	inactive: 0.008	inactive: -0.014	inactive: 0
GGNBP2 (UniProt Q9H3C7)	inactive: 0.014	inactive: -0.266	inactive: -0.046	inactive: 0.026	inactive: -0.043
GPSM1 (UniProt Q86YR5)	inactive: 0.069	inactive: -0.162	inactive: 0.056	inactive: 0.029	inactive: -0.051
GMPS (UniProt P49915)	inactive: 0.017	active: -0.553	inactive: 0.028	inactive: 0.002	inactive: 0.01
GNL3 (UniProt Q9BVP2)	inactive: 0.017	inactive: -0.142	inactive: 0.008	inactive: -0.041	inactive: 0.018
GINS3 (UniProt Q9BRX5)	inactive: -0.054	inactive: -0.078	inactive: 0.058	inactive: -0.025	inactive: 0.004
GNE isoform 2 (UniProt Q9Y223)	inactive: 0.056	active: -0.443	inactive: 0.023	inactive: 0.012	inactive: 0.017
GPR108 (UniProt Q9NPR9)	inactive: -0.001	inactive: -0.024	inactive: 0.001	inactive: -0.007	inactive: -0.008
GPALPP1 (UniProt Q8IXQ4)	inactive: -0.009	inactive: 0.158	inactive: 0	inactive: 0.049	inactive: 0

An excerpt from above, reduced to log2 fold change [2], log2 fold change (vorinostat) and log2 fold change [1]:
Target	log2 fold change [2]	log2 fold change (vorinostat)	log2 fold change [1]
GLB1L2 (UniProt Q8IW92)	inactive: -0.029	inactive: -0.023	inactive: 0.018
GMNN (UniProt O75496)	inactive: 0.01	inactive: 0.071	inactive: -0.021
